Source: PMC9307837
These are yes or no findings as the source states them, for the method shown. Binding seen in cells or lysates may run through a third protein. Some results given as binding are weak or reduced against the parent protein; the word gives no strength.

Chains of the proteins cited; added tags and fusions are not shown.
UniProt O88444: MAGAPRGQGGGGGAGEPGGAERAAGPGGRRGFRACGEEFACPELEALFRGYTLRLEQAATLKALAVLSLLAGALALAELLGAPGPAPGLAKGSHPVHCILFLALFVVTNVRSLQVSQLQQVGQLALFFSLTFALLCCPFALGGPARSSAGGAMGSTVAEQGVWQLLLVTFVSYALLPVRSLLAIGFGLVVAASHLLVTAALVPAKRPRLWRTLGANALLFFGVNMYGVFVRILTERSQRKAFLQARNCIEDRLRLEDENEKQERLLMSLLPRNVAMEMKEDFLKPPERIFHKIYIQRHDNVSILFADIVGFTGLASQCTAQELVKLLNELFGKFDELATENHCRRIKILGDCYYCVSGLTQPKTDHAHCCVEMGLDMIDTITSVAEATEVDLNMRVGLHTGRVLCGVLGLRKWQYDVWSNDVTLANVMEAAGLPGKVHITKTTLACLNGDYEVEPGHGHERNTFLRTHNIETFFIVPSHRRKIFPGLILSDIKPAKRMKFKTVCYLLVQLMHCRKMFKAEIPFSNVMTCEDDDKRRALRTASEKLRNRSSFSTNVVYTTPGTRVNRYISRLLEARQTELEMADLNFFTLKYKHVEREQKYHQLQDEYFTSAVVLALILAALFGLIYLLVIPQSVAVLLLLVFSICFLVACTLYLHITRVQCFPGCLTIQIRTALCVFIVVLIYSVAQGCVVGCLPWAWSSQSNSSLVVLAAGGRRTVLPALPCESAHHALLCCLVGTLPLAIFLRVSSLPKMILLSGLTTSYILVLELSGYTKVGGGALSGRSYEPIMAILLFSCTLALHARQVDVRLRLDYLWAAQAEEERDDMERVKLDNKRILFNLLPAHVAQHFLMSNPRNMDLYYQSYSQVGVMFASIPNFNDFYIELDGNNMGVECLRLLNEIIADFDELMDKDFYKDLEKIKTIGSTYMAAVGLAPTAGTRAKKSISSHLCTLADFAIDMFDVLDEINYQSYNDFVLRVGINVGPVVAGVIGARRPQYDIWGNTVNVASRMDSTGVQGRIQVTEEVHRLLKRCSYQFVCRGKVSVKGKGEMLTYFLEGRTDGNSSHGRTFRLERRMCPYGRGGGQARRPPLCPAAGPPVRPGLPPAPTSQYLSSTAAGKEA

Molecular target: T1, Calcium/calmodulin-dependent protein kinase IV (CaMK4), mouse (mouse (endogenous in RAW264.7 and BMDMs)) (UniProt P08414)
T1 sequence: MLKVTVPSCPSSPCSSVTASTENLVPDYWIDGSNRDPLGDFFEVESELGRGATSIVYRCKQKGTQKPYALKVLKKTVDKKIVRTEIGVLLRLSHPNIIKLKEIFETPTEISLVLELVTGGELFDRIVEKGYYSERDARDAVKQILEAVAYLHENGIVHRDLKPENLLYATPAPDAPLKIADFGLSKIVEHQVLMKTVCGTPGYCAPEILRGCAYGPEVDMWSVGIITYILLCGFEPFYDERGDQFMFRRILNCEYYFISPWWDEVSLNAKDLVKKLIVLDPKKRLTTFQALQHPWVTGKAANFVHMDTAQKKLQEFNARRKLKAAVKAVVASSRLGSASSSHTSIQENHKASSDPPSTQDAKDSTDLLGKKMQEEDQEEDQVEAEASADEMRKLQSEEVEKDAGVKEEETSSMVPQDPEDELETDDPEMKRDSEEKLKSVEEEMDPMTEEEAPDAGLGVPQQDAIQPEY
Experiment: co-IP; mouse BMDMs; forward and reverse co-IP, western blot

binding: binds
Substance: adenylyl cyclase 1 (ADCY1), mouse (from UniProt O88444 1-1118) (enzyme)
